Certain results were filed several times, with different values. The other results are left out here. There may be further records. Values that stand side by side do not match, cause unknown; dose, time, organism, isomer or construct need not be as stated for each record.
Columns and labels:
[1] = biological target: CBP BRD (Homo sapiens (Human), UniProt Q92793); experiment: CBP AlphaScreen bromodomain (BRD) binding test; conditions: read-out: CBP BRD IC50
[2] = biological target: EP300 BRD (Homo sapiens (Human), UniProt Q09472); experiment: EP300 AlphaScreen bromodomain (BRD) binding test; conditions: read-out: EP300 BRD IC50

By UniProt entry, the sequences of proteins in these tests, tags left out. Residues count along the entry.
UniProt Q92793, 1085-1192 limits assumed: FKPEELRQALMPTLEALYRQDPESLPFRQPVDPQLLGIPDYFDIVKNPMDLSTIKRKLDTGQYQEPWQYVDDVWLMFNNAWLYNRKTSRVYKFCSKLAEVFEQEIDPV
UniProt Q09472, 1049-1156 limits assumed: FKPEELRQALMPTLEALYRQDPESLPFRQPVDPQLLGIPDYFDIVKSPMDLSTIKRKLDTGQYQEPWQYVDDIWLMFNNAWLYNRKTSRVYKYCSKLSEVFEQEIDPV

For `[2H]C([2H])([2H])O[C@H]1CC[C@H](n2c([C@@H]3CCOC(=O)N3c3ccc(F)c(F)c3)nc3cc(-c4c(C)noc4C)ccc32)CC1`, which IC50 [1] is on record?
Its IC50 is ≤ 5 nM and 1.2 nM.

What about the IC50 [2] of the same compound?
Its IC50 is ≤ 3 nM and 0.8 nM.

From patent publication US12497392B2, “EP300/CBP inhibitor” (HINOVA PHARMACEUTICALS INC., priority 2019, dated 2025)
